No constants are given. Whether binding was seen depends on the method and setting. Some results given as binding are weak or reduced against the parent protein; the word gives no strength.

Assay [1] concerns the target T1, human IFP35 protein (human, UniProt P80217 1-286, limits assumed).
T1 construct: also called interferon-induced protein 35; IFI35
T1 chain: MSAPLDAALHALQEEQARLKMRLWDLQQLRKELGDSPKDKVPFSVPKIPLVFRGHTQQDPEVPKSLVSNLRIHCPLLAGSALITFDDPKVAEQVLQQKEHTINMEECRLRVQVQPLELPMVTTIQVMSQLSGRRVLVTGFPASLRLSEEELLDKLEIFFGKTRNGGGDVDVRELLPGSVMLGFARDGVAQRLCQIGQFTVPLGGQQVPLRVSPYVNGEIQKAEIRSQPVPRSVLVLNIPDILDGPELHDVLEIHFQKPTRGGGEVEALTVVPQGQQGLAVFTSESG
In words: ELISA (OD450) on human IFP35 protein. In general terms: ELISA stands for enzyme-linked immunosorbent assay.

Assay [2] addresses T1, human IFP35 protein. Nature of the assay: ELISA (OD450) on antigen IFP35.
Assay [3] deals with T1, human IFP35 protein. In words: antigen binding test of FIG. 11.

B1: 35NIDmAb (antibody, V domains shown)
VH: VQLVESGPELKKPGETVKISCKASGYTFTNYGMNWVKQAPGKGLKWMGWINTYTGEPTFADDFKGRFAFSLETSASTAYLQINNLKNEDTATYFCARYGYSWAMDYWGQGTSVTVSS
VL: DIVMTQSPAIMSASPGEKVTMTCSASSSVSYMHWYQQKSGTSPKRWIYDTSKLASGVPARFSGSGSGTSYSLTISSMEAEDAATYYCQQWSSNPPITFGAGTKLEIK
notes: Mouse monoclonal antibody from hybridoma ascites; also called AE001-VH+VL; AE001-VH+VL (35NIDmAb)
On to B1, for which, in the assay with human IFP35 protein [1], the binding entry was “binds”.

B2: AE001-H3+L3 (antibody, V domains shown)
VH: QVQLVQSGAEVKKPGASVKVSCKASGYTFTNYGMNWVRQAPGQGLEWMGWINTYTGEPTVAQKFQGRFTFTLDTSTSTAYLELSSLRNEDTAVYFCARYGYSWAMDYWGQGTSVTVSS
VL: DIQMTQSPSSLSASVGDRVTITCQASSSVSYMHWYQQKPGKAPKRLIYDTSKLASGVPSRFSGSGSGTDYTLTISSLQPEDIATYYCQQWSSNPPITFGAGTKLEIK
notes: The same doubt about the 'constant region' label applies as for AE001-H1+L1; also called AE001H3 + AE001L3; humanized antibody
Take B2: the binding result with human IFP35 protein [2], in the assay with human IFP35 protein [3] and with human IFP35 protein [1] was “binds” in each case.

B3: AE001-H1+L1 (antibody, V domains shown)
VH: QVQLVESGAEVKKPGASVKISCKASGYTFTNYGMNWVKQAPGQGLKWMGWINTYTGEPTFAQDFQGRFTFTLDTSASTAYLQISSLRNEDTAVYFCARYGYSWAMDYWGQGTSVTVSS
VL: DIQMTQSPSSMSASVGDRVTMTCQASSSVSYMHWYQQKPGKSPKRWIYDTSKLASGVPSRFSGSGSGTDYTLTISSMQPEDIATYYCQQWSSNPPITFGAGTKLEIK
notes: also called AE001H1 + AE001L1; humanized antibody
As for B3, the binding result with human IFP35 protein [3] and in the assay with human IFP35 protein [1] was “binds” each time.

B4: AE001-7 (antibody, human IgG1, V domains shown)
VH: QVQLVQSGAEVKKPGASVKVSCKASGYTFTNYGMNWVRQAPGQGLEWMGWINTYTGEPTVAQKFQGRFTFTLDTSTSTAYLELSSLRNEDTAVYFCARYGYSWAMDYWGQGTSVTVSS
VL: DIQMTQSPSSLSASVGDRVTITCQASSSVSYMHWYQQKPGKAPKRLIYDTSKLASGVPSRFSGSGSGTDYTLTISSLQPEDIATYYCQQWSSNSWSTFGAGTKLEIK
notes: Human IgG1; CDR mutant of AE001-H3+L3; also called AE001-6Hc + 7Lc; AE001-6HC + 7LC
On to B4, for which the binding result with human IFP35 protein [2] is “binds”.

B5: AE001-H2+L2 (antibody, V domains shown)
VH: QVQLVQSGAEVKKPGASVKISCKASGYTFTNYGMNWVRQAPGQGLEWMGWINTYTGEPTFAQKFQGRFTFTLDTSTSTAYLEISSLRNEDTAVYFCARYGYSWAMDYWGQGTSVTVSS
VL: DIQMTQSPSSLSASVGDRVTMTCQASSSVSYMHWYQQKPGKAPKRWIYDTSKLASGVPSRFSGSGSGTDYTLTISSMQPEDIATYYCQQWSSNPPITFGAGTKLEIK
notes: Humanized form of 35NIDmAb with the same CDRs; The same doubt about the 'constant region' label applies as for AE001-H1+L1; also called AE001H2 + AE001L2; humanized antibody
On to B5, for which the binding result with human IFP35 protein [3] and in the assay with human IFP35 protein [1] was “binds” in each case.

B6: AE001-8 (antibody, human IgG1, V domains shown)
VH: QVQLVQSGAEVKKPGASVKVSCKASGYTFTNYGMNWVRQAPGQGLEWMGWINTYTGEPTVAQKFQGRFTFTLDTSTSTAYLELSSLRNEDTAVYFCARYGYSWAMDYWGQGTSVTVSS
VL: DIQMTQSPSSLSASVGDRVTITCQASSSVSYMHWYQQKPGKAPKRLIYDTSKLASGVPSRFSGSGSGTDYTLTISSLQPEDIATYYCQQWSPLPPITFGAGTKLEIK
notes: Human IgG1; CDR mutant of AE001-H3+L3; also called AE001-6Hc + 8Lc; AE001-6HC + 8LC
On to B6, for which the binding result with human IFP35 protein [2] is on record as “binds”.

B7: AE001-9 (antibody, human IgG1, V domains shown)
VH: QVQLVQSGAEVKKPGASVKVSCKASGYTFTNYGMNWVRQAPGQGLEWMGWINTYTGEPTVAQKFQGRFTFTLDTSTSTAYLELSSLRNEDTAVYFCARYGYSWAMDYWGQGTSVTVSS
VL: DIQMTQSPSSLSASVGDRVTITCQASSSVSYMHWYQQKPGKAPKRLIYDTSKLASGVPSRFSGSGSGTDYTLTISSLQPEDIATYYCQQWSPRPPITFGAGTKLEIK
notes: Human IgG1; CDR mutant of AE001-H3+L3; also called AE001-6Hc + 9Lc; AE001-6HC + 9LC
As for B7, the binding entry in the assay with human IFP35 protein [2] was “binds”.

B8: AE001-6 (antibody, human IgG1, V domains shown)
VH: QVQLVQSGAEVKKPGASVKVSCKASGYTFTNYGMNWVRQAPGQGLEWMGWINTYTGEPTVAQKFQGRFTFTLDTSTSTAYLELSSLRNEDTAVYFCARYGYSWAMDYWGQGTSVTVSS
VL: DIQMTQSPSSLSASVGDRVTITCQASSSVSYMHWYQQKPGKAPKRLIYDTSKLASGVPSRFSGSGSGTDYTLTISSLQPEDIATYYCQQWSPYPPITFGAGTKLEIK
notes: Human IgG1; CDR mutant of AE001-H3+L3; also called AE001-6Hc + Lc; AE001-6HC + LC
B8: the binding entry with human IFP35 protein [2] is listed as “binds”.

(Values after US12473352 (SUN YAT SEN UNIVERSITY, dated 2025).)
